Values from PubChem BioAssay AID743121 (NCATS, 2013).
In all, the deposit lists about 26,000 reagents; this is a part drawn at random. Over the whole deposit, 167 (0.63%) got an active call. 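Calls are per gene from RSA p-values that are not deposited; an individual active-marked siRNA can sensitise only weakly.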 The numbers tell different reagents against one gene apart. Further read-outs or replicates are left out here.

Assay: 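Genes whose silencing strengthens cell killing by camptothecin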 (primary screen)
Cell system: MDA-MB-231 cells, a human breast cancer line
Knock-down reagent: single siRNA against human genes, 20 nM siRNA (0.8 pmol per well)
Timing: 120 h (drug added 48 h after transfection, read 72 h later)
Treatment: camptothecin 20 nM (about EC30) for 72 h; vehicle 0.1% DMSO in parallel plates
Measured: 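CellTiter-Glo ATP signal, scaled to control siRNA as percent viability; sensitisation given as log2 of untreated divided by camptothecin-treated viability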
Scale: log2 vehicle/camptothecin viability: higher = stronger sensitisation to camptothecin
Rule for the call: 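Active genes have an RSA gene-level p-value below 0.001, computed from the ratios of their separate siRNAs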

With YME1L1 #1, what does the deposit list?
log2 vehicle/camptothecin viability: -0.521; Call: inactive

How did the screen score YME1L1 #2?
log2 vehicle/camptothecin viability: -0.429; Call: inactive

With YME1L1 #3, what does the deposit list?
log2 vehicle/camptothecin viability: -0.0187; Call: inactive

With YME1L1 #4, what was measured?
log2 vehicle/camptothecin viability: -0.127; Call: inactive

What did the screen give for RFPL3 #1?
log2 vehicle/camptothecin viability: -0.192; Call: inactive

With RFPL3 #2, what was measured?
log2 vehicle/camptothecin viability: -0.445; Call: inactive

How did the screen score RFPL3 #3?
log2 vehicle/camptothecin viability: 0.0756; Call: inactive

What is on record for RFPL3 #4?
log2 vehicle/camptothecin viability: 0.0433; Call: inactive

With MSX2 #1, what was measured?
log2 vehicle/camptothecin viability: -0.271; Call: inactive

For MSX2 #2, how do the results read?
log2 vehicle/camptothecin viability: -0.0786; Call: inactive

For MSX2 #3, how do the results read?
log2 vehicle/camptothecin viability: -0.254; Call: inactive

An excerpt from the list above:
YME1L1 #4 — log2 vehicle/camptothecin viability = -0.127; Call = inactive
RFPL3 #1 — log2 vehicle/camptothecin viability = -0.192; Call = inactive

The results go on.
For HIPK2 #1, what was measured?
log2 vehicle/camptothecin viability: 0.098; Call: inactive

What did the screen give for HIPK2 #2?
log2 vehicle/camptothecin viability: -0.268; Call: inactive

For HIPK2 #3, how do the results read?
log2 vehicle/camptothecin viability: -0.444; Call: inactive

Which result is listed for HIPK2 #4?
log2 vehicle/camptothecin viability: 0.294; Call: inactive

For M6PR #1, how do the results read?
log2 vehicle/camptothecin viability: 0.0482; Call: inactive

For M6PR #2, what was measured?
log2 vehicle/camptothecin viability: -0.204; Call: inactive

What did the screen give for M6PR #3?
log2 vehicle/camptothecin viability: -0.341; Call: inactive

Which result is listed for M6PR #4?
log2 vehicle/camptothecin viability: 0.000425; Call: inactive

For GPR45 #1, what does the deposit list?
log2 vehicle/camptothecin viability: -0.174; Call: inactive

What is on record for GPR45 #2?
log2 vehicle/camptothecin viability: 0.00835; Call: inactive

What did the screen give for GPR45 #3?
log2 vehicle/camptothecin viability: -0.282; Call: inactive

With GPR45 #4, what was measured?
log2 vehicle/camptothecin viability: -0.299; Call: inactive

What is on record for MAP2K2 #1?
log2 vehicle/camptothecin viability: 0.123; Call: inactive

What did the screen give for MAP2K2 #2?
log2 vehicle/camptothecin viability: -0.234; Call: inactive

How did the screen score MAP2K2 #3?
log2 vehicle/camptothecin viability: -0.195; Call: inactive

Which result is listed for MAP2K2 #4?
log2 vehicle/camptothecin viability: -0.0576; Call: inactive

What is on record for MAP2K2 #5?
log2 vehicle/camptothecin viability: 0.00141; Call: inactive

Which result is listed for MAP2K2 #6?
log2 vehicle/camptothecin viability: -0.295; Call: inactive

How did the screen score MAP2K2 #7?
log2 vehicle/camptothecin viability: -0.321; Call: inactive

What is on record for MAP2K2 #8?
log2 vehicle/camptothecin viability: -0.475; Call: inactive

With FKBP10 #1, what does the deposit list?
log2 vehicle/camptothecin viability: -0.218; Call: inactive

How did the screen score FKBP10 #2?
log2 vehicle/camptothecin viability: -0.407; Call: inactive

For FKBP10 #3, how do the results read?
log2 vehicle/camptothecin viability: -0.355; Call: inactive

What is on record for FKBP10 #4?
log2 vehicle/camptothecin viability: -0.486; Call: inactive
